Measurements published in patent US20040022788A1, “Compositions and methods for promoting or inhibiting angiogenesis” (priority 1998, published 2004).

System: HUVEC
Assay: Direct binding of 125I-labeled plasminogen or angiostatin to endothelial cells, Scatchard analysis
Design: species or system human
Conditions: 125I-labeled ligand
Experimental: FIGS. 1A and 1B. Direct binding assay and Scatchard analysis of plasminogen and angiostatin with endothelial cells. HUVEC were plated at a density of 10,000 cells/well and incubated with increasing concentrations of ^125I-labeled-plasminogen or angiostatin. FIG. 1A. ^125I-labeled plasminogen binding was concentration-dependent and saturable with an apparent dissociation constant ([…]) of 158 nM and 870,000 sites/cell. FIG. 1B. […] Error bars represent standard deviation.
Binding Assays. Ligands were radioiodinated by using Iodobeads (Pierce), repurified on L-lysine-Sepharose, eluted with 100 mM ε-aminocaproic acid, and dialyzed in PBS, pH 7.0 before use in binding assays. HUVEC were plated at a density of 5,000 or 10,000 cells/well and incubated with increasing concentrations of ^125I-labeled ligand in media containing 1% BSA for 1 h at 4° C. in 96-well plates. Wells were washed, and remaining bound radioactivity was quantified by using an LKB 1272 γ-radiation counter. Nonspecific binding was measured in the presence of excess unlabeled ligand.

With angiostatin the “binding sites per cell” value was 38,000 sites/cell and the “binding sites per cell” value (listed as Angiostatin) was “approximately 38,000 sites/cell”.
